Drawing on patent publication US20170304444A1 (Dana-Farber, published 2017), this text covers binding for 1 molecule.

Amino acid sequences for entries named in this document (tags omitted). Residues count along the entry.
UniProt Q9Y5U5, residues 26-241: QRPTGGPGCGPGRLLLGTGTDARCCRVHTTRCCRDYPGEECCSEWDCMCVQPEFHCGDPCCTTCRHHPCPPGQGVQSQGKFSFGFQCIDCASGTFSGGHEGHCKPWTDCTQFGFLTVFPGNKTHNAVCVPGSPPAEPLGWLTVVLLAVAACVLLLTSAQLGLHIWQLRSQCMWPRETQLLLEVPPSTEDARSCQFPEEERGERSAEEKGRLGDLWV

The target of the assay is glucocorticoid-induced tumor necrosis factor receptor (GITR) (human) (UniProt Q9Y5U5). In words: flow cytometry on GITR-expressing 293T cells, FITC anti-human Fc detection. In general terms: Flow cytometry measures light scatter and fluorescence of single cells or particles in a stream.

No constants are given. Whether binding was seen depends on the method and setting. Some results given as binding are weak or reduced against the parent protein; the word gives no strength.

B1: mAb #17-60 (antibody, V domains shown)
VH: EVQLVESGAEVKKPGASVKVSCKTSGYTFTDHYIHWVRQAPGQGLEWMGWINPSSGGTEYAQKFQGRVTMTRDTPISTAYMDLSGLRSDDTAVYYCARETIGGWNALDVWGQGTLVTVSS
VL: QPVLTQPPSASGTPGQRVTISCSGSSSNIGINTVNWYQQLPRTPPKLLIYTNNQRPSGVPDRFSGSKSDTSASLAISGLQSEDEADYYCAAWDDTLNGPLFGGGTKVTVLG
As to B1, the binding entry is given as “binds”.
